Data taken from article PMC5394241.

Experiments:
[1] = tested on: POT1 full-length + TPP1PBM (SAXS construct); test: SAXS of ternary complex; details: recombinant protein; single-stranded DNA
[2] = biological target: HA-POT1 A364E (Homo sapiens) (UniProt Q9NUX5); test: pull-down; details: Flag-TPP1 co-expressed, reduced POT1 input; Pull-down: 50 mM Hepes pH 7.3, 150 mM NaCl, 2 mM MgCl2, 5 mM EGTA, 0.5% Triton X-100, 10% glycerol, protease inhibitors, overnight 4 °C; protein in a lysate after overexpression; residues 1-634; protein details: HA; single-stranded DNA
[3] = biological target: HA-POT1 E572K (Homo sapiens) (UniProt Q9NUX5); test: pull-down; details: Flag-TPP1 co-expressed; Pull-down: 50 mM Hepes pH 7.3, 150 mM NaCl, 2 mM MgCl2, 5 mM EGTA, 0.5% Triton X-100, 10% glycerol, protease inhibitors, overnight 4 °C; protein in a lysate after overexpression; residues 1-634; protein details: HA; single-stranded DNA
[4] = biological target: HA-POT1 F62A (Homo sapiens) (UniProt Q9NUX5); test: pull-down; details: Flag-TPP1 co-expressed; Pull-down: 50 mM Hepes pH 7.3, 150 mM NaCl, 2 mM MgCl2, 5 mM EGTA, 0.5% Triton X-100, 10% glycerol, protease inhibitors, overnight 4 °C; protein in a lysate after overexpression; residues 1-634; protein details: HA; single-stranded DNA
[5] = biological target: HA-POT1 M587T (Homo sapiens) (UniProt Q9NUX5); test: pull-down; details: Flag-TPP1 co-expressed; Pull-down: 50 mM Hepes pH 7.3, 150 mM NaCl, 2 mM MgCl2, 5 mM EGTA, 0.5% Triton X-100, 10% glycerol, protease inhibitors, overnight 4 °C; protein in a lysate after overexpression; residues 1-634; protein details: HA; single-stranded DNA
[6] = biological target: HA-POT1 P371T (Homo sapiens) (UniProt Q9NUX5); test: pull-down; details: Flag-TPP1 co-expressed, reduced POT1 input; Pull-down: 50 mM Hepes pH 7.3, 150 mM NaCl, 2 mM MgCl2, 5 mM EGTA, 0.5% Triton X-100, 10% glycerol, protease inhibitors, overnight 4 °C; protein in a lysate after overexpression; residues 1-634; protein details: HA; single-stranded DNA
[7] = biological target: HA-POT1 Q623H (Homo sapiens) (UniProt Q9NUX5); test: pull-down; details: Flag-TPP1 co-expressed; Pull-down: 50 mM Hepes pH 7.3, 150 mM NaCl, 2 mM MgCl2, 5 mM EGTA, 0.5% Triton X-100, 10% glycerol, protease inhibitors, overnight 4 °C; protein in a lysate after overexpression; residues 1-634; protein details: HA; single-stranded DNA
[8] = biological target: HA-POT1 WT (Homo sapiens) (UniProt Q9NUX5); test: pull-down; details: Pull-down: 50 mM Hepes pH 7.3, 150 mM NaCl, 2 mM MgCl2, 5 mM EGTA, 0.5% Triton X-100, 10% glycerol, protease inhibitors, overnight 4 °C, protein in a lysate after overexpression, residues 1-634, protein details: HA, single-stranded DNA

| Sequence | binding result [1] | binding result [2] | binding result [3] | binding result [4] | binding result [5] | binding result [6] | binding result [7] | binding result ([8]; Flag-TPP1 co-expressed) | binding result ([8]; Flag-TPP1ΔRD (del244-337, does not bind POT1) co-expressed instead of WT TPP1, reduced POT1 stability) |
| --- | --- | --- | --- | --- | --- | --- | --- | --- | --- |
| TTAGGGTTAG [T10] | binds | – | – | – | – | – | – | – | – |
| TTAGGGTTAGGGTTAGGGTTAGGGTTAGGGTTAGGG [Tel-G (TTAGGG)6] | – | binds | binds | no binding | binds | binds | binds | binds | binds more weakly |

For part of these data: At least one result comes from cells or an extract, where the contact may be indirect. For part of these data: No signal at the amounts used counts as a negative. For part of these data: For at least one entry, the source does not settle the construct or the ends of the probe. For part of these data: The comparison behind a weaker result is the experiment's own reference, which may not be listed here. For part of these data: At least one verdict rests on a figure or table, not on a statement of the authors.
